Laboratory results taken from article PMC8191758.
Numbering of substitutions follows the chain as printed. These are yes or no findings as the source states them, for the method shown. Binding seen in cells or lysates may run through a third protein. Some entries that bind do so weakly or less than the wild type.

By UniProt entry, the sequences of proteins in these tests, tags left out.
UniProt O95639: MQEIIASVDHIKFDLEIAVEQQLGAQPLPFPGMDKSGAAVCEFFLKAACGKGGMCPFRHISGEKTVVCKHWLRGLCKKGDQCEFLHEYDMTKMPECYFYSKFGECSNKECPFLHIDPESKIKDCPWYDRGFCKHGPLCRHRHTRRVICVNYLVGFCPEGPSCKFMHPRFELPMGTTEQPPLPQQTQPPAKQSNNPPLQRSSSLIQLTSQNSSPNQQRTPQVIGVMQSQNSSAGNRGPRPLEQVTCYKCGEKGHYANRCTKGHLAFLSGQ

What was measured:
Test in all cases: co-IP; HA-CPSF4 and FLAG-tagged PAPα forms co-expressed in HeLa cells, about 48 h; lysis buffer 50 mM Tris-HCl pH 7.5, 150 mM NaCl, 10% glycerol, 0.5% NP-40; affinity gel, 4°C, 3-4 h; Western blot; in one panel lysates with or without RNase A
[1] = target: FLAG-tagged human poly(A) polymerase α (PAPα), wild type (human) (UniProt P51003)
[2] = target: T1, PAPα^3SA (S537, S545 and S558 mutated to Ala) (human) (UniProt P51003)
T1 sequence: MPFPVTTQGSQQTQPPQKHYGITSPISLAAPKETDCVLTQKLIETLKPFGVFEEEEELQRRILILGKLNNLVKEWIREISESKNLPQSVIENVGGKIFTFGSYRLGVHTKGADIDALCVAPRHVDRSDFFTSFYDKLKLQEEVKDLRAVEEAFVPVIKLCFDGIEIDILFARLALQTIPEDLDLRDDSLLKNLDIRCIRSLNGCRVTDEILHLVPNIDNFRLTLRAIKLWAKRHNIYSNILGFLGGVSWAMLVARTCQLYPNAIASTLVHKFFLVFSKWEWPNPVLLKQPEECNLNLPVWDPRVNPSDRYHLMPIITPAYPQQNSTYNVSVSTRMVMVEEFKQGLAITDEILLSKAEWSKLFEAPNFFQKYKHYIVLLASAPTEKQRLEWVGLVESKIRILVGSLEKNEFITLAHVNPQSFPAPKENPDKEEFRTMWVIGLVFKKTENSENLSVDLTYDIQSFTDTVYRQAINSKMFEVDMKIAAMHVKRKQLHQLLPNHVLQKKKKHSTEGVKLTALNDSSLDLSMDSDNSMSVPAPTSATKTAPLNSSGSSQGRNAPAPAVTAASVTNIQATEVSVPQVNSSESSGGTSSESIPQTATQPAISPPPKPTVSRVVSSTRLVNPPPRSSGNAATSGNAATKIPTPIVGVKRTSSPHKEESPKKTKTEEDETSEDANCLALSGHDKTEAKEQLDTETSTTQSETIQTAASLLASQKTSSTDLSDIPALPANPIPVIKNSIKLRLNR

[3] = target: T2, PAPα^3SD (phosphorylation-mimicking PAPα; S537, S545 and S558 mutated to Asp) (human) (UniProt P51003)
T2 sequence: T1 sequence with A537D, A545D, A558D

PAPα^△496–643aa (human) = target: T3, PAPα^△496–643aa (human) (UniProt P51003)
T3 sequence: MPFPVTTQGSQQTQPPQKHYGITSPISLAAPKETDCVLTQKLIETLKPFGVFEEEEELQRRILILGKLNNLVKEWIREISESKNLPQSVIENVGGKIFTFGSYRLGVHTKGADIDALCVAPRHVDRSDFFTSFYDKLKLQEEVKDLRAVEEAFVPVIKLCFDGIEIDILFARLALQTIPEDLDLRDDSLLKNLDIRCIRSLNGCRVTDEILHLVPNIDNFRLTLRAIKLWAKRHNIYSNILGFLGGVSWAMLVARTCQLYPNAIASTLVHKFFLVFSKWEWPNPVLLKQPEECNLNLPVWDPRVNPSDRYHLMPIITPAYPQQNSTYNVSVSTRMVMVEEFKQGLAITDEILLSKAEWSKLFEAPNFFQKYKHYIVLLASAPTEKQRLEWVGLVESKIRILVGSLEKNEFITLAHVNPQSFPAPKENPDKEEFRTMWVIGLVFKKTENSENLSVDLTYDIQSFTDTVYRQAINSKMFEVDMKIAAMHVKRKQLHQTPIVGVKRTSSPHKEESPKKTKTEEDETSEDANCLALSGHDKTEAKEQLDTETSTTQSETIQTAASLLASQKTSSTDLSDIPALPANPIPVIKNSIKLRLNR

PAPα^△644–745aa (human) = target: T4, PAPα^△644–745aa (human) (UniProt P51003)
T4 sequence: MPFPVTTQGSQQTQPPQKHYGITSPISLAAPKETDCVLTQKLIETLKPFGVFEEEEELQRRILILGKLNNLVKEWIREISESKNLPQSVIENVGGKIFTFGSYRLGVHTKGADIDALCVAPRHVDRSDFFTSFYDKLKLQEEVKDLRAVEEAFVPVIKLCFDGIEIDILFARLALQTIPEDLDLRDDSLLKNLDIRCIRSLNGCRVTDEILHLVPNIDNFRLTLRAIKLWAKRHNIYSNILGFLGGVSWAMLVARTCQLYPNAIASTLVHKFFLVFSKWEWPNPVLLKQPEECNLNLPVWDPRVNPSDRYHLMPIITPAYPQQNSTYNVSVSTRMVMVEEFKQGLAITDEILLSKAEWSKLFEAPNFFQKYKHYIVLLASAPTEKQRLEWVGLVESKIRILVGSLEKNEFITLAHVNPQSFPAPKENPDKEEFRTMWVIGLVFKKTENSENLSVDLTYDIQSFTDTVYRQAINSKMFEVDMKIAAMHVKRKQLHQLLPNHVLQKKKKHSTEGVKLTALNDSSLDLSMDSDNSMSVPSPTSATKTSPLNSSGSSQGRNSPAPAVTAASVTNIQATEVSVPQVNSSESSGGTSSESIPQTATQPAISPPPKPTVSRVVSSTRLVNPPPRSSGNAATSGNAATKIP

binding [1]: binds | binding [2]: binds | binding [3]: binds | binding (PAPα^△496–643aa (human)): binds | binding (PAPα^△644–745aa (human)): binds
Substance: HA-tagged human CPSF4 (from UniProt O95639 1-269)
